Data taken from doi:10.1101/2023.01.18.524620.
No constants are given. Whether binding was seen depends on the method and setting. For part of these data: Binding calls can cover weak binding; strength is not graded here. Sequences can lack the tags named with a protein. For part of these data: Binding seen in cells or lysates may run through a third protein. Each block holds one molecule with its values, some of them ahead of it.

Legend:
[1] = target: T1, N-coil-Globular N part of arabidopsis AGO1 (NcGN^AGO1), Gal4-BD fusion (Arabidopsis thaliana) (UniProt O04379); experiment: two-hybrid
T1 sequence: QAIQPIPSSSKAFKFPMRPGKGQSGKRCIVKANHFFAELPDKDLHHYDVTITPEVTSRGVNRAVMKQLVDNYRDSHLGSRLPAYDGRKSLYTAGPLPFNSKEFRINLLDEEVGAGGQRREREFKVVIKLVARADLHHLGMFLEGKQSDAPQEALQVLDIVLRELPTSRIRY

[2] = target: T2, cYFP-AGO1 (full-length AGO1 fused to the C-terminal half of YFP) (Arabidopsis thaliana) (UniProt O04379); experiment: split reporter
T2 sequence: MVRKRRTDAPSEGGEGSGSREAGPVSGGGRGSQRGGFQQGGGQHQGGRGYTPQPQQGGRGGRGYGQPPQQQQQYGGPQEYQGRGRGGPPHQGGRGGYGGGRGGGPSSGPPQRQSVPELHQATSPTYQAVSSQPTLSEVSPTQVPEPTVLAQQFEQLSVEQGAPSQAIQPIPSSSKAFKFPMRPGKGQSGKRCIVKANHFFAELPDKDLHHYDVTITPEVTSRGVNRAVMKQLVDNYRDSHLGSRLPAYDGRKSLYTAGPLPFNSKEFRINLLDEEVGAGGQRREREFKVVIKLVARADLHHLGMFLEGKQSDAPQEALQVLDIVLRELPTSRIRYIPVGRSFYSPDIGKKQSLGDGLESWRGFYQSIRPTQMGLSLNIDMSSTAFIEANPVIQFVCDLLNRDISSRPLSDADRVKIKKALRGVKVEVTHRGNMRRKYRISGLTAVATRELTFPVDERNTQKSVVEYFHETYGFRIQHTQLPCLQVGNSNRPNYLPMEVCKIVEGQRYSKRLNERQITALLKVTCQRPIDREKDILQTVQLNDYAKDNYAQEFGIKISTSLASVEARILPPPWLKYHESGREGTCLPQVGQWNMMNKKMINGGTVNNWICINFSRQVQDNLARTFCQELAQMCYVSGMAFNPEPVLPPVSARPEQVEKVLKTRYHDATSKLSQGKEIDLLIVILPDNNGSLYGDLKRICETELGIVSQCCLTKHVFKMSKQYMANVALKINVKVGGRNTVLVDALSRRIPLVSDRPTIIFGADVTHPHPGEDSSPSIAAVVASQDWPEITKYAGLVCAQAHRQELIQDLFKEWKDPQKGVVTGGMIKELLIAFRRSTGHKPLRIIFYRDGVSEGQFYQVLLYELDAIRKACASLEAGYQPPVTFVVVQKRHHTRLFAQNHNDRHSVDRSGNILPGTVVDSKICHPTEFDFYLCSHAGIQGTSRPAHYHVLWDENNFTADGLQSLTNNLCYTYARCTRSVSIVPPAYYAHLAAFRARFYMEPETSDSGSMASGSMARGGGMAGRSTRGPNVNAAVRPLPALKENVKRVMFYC

[3] = target: T3, βNc^AGO1 (N-coil plus connecting β-strands), Gal4-BD fusion (Arabidopsis thaliana) (UniProt O04379); experiment: two-hybrid
T3 sequence: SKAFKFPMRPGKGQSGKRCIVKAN

[4] = target: cYFP-AGO10 (Arabidopsis thaliana); experiment: split reporter

Molecule: NTMC2T5.1 fused to the Gal4 activation domain (Arabidopsis thaliana)
binding [1]: binds

Molecule: nYFP-AUF3^171-371 (Arabidopsis thaliana) (domain or fragment)
binding [2]: binds

Molecule: TCTP fused to the Gal4 activation domain (Arabidopsis thaliana)
binding [3]: no binding
binding [1]: binds

Molecule: PP2C fused to the Gal4 activation domain (Arabidopsis thaliana)
binding [1]: binds

B1: nYFP-ATI1 (protein, UniProt O82775 1-256)
chain: MANNEEHPPRGNEWEVVSLTSSAYAAAPGPYNVESRDVRKYDAYYGAETSRDLYMSEHFVFPPSEHENLPIDESLFVAEQRKDGRDLMLEGQGLSDQFHYEAGNNQQSIYGESALGSSRHMESFGSESAVYEHGLVDAEGNLDLHSDGEGEKDVKKSTHNLPCEAWWKRRAISMYSRTREANAIWSLFFAAAVTGLVVLGQRWQQERWQVLQLKWQSSISSEKLGRVLEPLSRLKDVIVRSNPQASLVRSGSSSEV
binding [4]: binds weakly

Next, values leading:

binding [1]: binds
Molecule: AUF3 fused to the Gal4 activation domain (Arabidopsis thaliana)

binding [1]: binds
Molecule: UBI fused to the Gal4 activation domain (Arabidopsis thaliana)

binding [4]: binds weakly
B2: nYFP-ATI2 (protein, UniProt Q8VY98 1-266)
chain: MADKDEAATRGNDWEVVSLTASAYAAAPGPKPVVDSKDDDHKEVTPCYEAETSHPLYMSRHFVFPPTGQLENTSDLTEASLTGSHCKEGSDLSLKGLDLSDDFGGLEFSEDKGKKEENIYTTAMSSLDDERAIGGSHVYEPVEEPTEPVSPSDVTLDLNPIKDDEVANSPPSEEAWWKRSVASLIAQAKETNTVWSICIAAAVMGIVILGQHWQQERWQILQQKWESSIGNEKAGRLMGPISRLKQAFVGGQRRDSFIRASAQNDR
